# According to patent US12390461B2, “Modulators of RAR-related orphan receptors (RORs)” (11949098 CANADA INC., priority 2018, dated 2025):
# Test system: Th17 polarization of human peripheral blood mononuclear cells
# Assay: Th17 polarization assay (IL-17A positive cells by flow cytometry)
# Type: cell-based
# Conditions: PBMC, 10 nM compound, 48 hours, triplicates, average of 50% over the listed compounds, p<0.05, read-out: inhibition of the polarization of Th17 cells (percentage of IL17A positive cells relative to total CD4 T cells)
# Excerpt: This assay measures the phenotypic effects of the compounds on the production of interleukin 17A (IL-17A). IL-17A genes are regulated by ROR response elements (ROREs). Compounds that bind to ROR (LBD) can inhibit the binding of RORγ to ROREs DNA site. Compounds can also reduce the effect of the binding which is enhanced by the binding of the co-activator protein.
# Peripheral blood mononuclear cells were isolated by density gradient centrifugation. The principle of this method is that components of the blood have different densities and can be separated according to their relative density. […] This medium is denser than lymphocytes, monocytes, and platelets and they remain about it, but less dense than granulocytes and erythrocytes, which will drop below it. […] Four layers were form, each containing different cell types—the uppermost layer contain containing plasma was removed by pipetting. PBMCs layer and is a characteristically white and cloudy “blanket” was gently removed using a 10 ml pipette and added to warm medium or PBS (1:3) to wash off any remaining platelets and centrifuged at 400×g for 10 minutes. The pelleted cells were counted, and the percentage viability estimated using Trypan blue staining. Cells were frozen for long-term storage. […]
smiles,measurement,value
"O=C(Nc1sc2c(c1C(=O)N1CCN(Cc3ccccc3)CC1)CCCC2)c1ccccc1F [Compound 1, N-(3-(4-benzylpiperazine-1-carbonyl)-4,5,6,7-tetrahydro-benzo[b]thiophen-2-yl)-2-fluorobenzamide]",inhibition at 0.01 µM,30 to 70%
